Positions count from the first letter of the chain named. Numbers in names are those of the source. Where two headings read alike, the source gives them in different places. Results are given in words; binding and its absence hold for the method and conditions named. In cells and extracts the contact can be indirect. Some binding calls cover weakened binding; strength is not graded here. For some of these results: Where a sequence is shown, tags or fusion partners need not be part of it.

What all share (assay): pull-down; oligohistidine pull-down with Rz1-His; each spanin subunit expressed in a separate culture, complex formation in vitro with solubilized samples; products analysed by Western blot with anti-Rz and anti-Rz1 antibodies
The target in test [1] is T1, Rz1-His (functional oligohistidine-tagged Rz1, lambda o-spanin) (coliphage lambda) (UniProt Q37935).
T1 sequence (chain, lipoylated Cys20 (as the paper says of Rz1)): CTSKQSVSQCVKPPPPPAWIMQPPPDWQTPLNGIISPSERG

Test [2] concerns the target T2, Rz1-His P32Q (coliphage lambda) (UniProt Q37935).
T2 sequence (chain, lipoylated Cys20 (as the paper says of Rz1)): T1 sequence (chain, lipoylated Cys20 (as the paper says of Rz1)) with P13Q

Test [3] has as its target T3, Rz1-His P36Q (coliphage lambda) (UniProt Q37935).
T3 sequence (chain, lipoylated Cys20 (as the paper says of Rz1)): T1 sequence (chain, lipoylated Cys20 (as the paper says of Rz1)) with P17Q

The target of test [4] is T4, Rz1-His I39V (coliphage lambda) (UniProt Q37935).
T4 sequence (chain, lipoylated Cys20 (as the paper says of Rz1)): T1 sequence (chain, lipoylated Cys20 (as the paper says of Rz1)) with I20V

Test [5] concerns the target T5, Rz1-His P44S (coliphage lambda) (UniProt Q37935).
T5 sequence (chain, lipoylated Cys20 (as the paper says of Rz1)): T1 sequence (chain, lipoylated Cys20 (as the paper says of Rz1)) with P25S

In test [6] the target is T6, Rz1-His L50P (coliphage lambda) (UniProt Q37935).
T6 sequence (chain, lipoylated Cys20 (as the paper says of Rz1)): T1 sequence (chain, lipoylated Cys20 (as the paper says of Rz1)) with L31P

The target of test [7] is T7, Rz1-His R59E (coliphage lambda) (UniProt Q37935).
T7 sequence (chain, lipoylated Cys20 (as the paper says of Rz1)): T1 sequence (chain, lipoylated Cys20 (as the paper says of Rz1)) with R40E

Test [8] concerns the target T8, Rz1-His P35H (coliphage lambda) (UniProt Q37935).
T8 sequence (chain, lipoylated Cys20 (as the paper says of Rz1)): T1 sequence (chain, lipoylated Cys20 (as the paper says of Rz1)) with P16H

Test [9] has as its target T1, Rz1-His (functional oligohistidine-tagged Rz1, lambda o-spanin) (coliphage lambda). This is another data set of the same source.
Test [10] deals with T9, Rz1-His P33L (coliphage lambda) (UniProt Q37935).
T9 sequence (chain, lipoylated Cys20 (as the paper says of Rz1)): T1 sequence (chain, lipoylated Cys20 (as the paper says of Rz1)) with P14L

In test [11] the target is Rz1-His W46R (coliphage lambda) (UniProt Q37935).

“Rz C152X (from UniProt P00726 1-151) (domain or fragment)”: the binding result in test [1] was “binds”.
Still for that read-out and setting: then “Rz Q151X (from UniProt P00726 1-150) (domain or fragment)”, with “binds”.

B1: Rz (lambda i-spanin, inner membrane subunit of the spanin complex) (protein, UniProt P00726 1-153)
chain: MSRVTAIISALVICIIVCLSWAVNHYRDNAITYKAQRDKNARELKLANAAITDMQMRQRDVAALDAKYTKELADAKAENDALRDDVAAGRRRLHIKAVCQSVREATTASGVDNAASPRLADTAERDYFTLRERLITMQKQLEGTQKYINEQCR
In the case of B1, the binding result in [2], in test [3], in test [4], in test [5], in test [6] and in [7] was “binds” throughout. In addition, the binding result in [8], in test [9], in [10] and in test [11] was “binds” in each case.

B2: Rz Q151R (protein, UniProt P00726 1-153)
chain: B1 chain with Q151R
Turning to B2, the binding entry in test [9] was “binds”.

B3: Rz Y147H (protein, UniProt P00726 1-153)
chain: B1 chain with Y147H
In the case of B3, the binding result in test [9] is “binds”.

B4: Rz Q151K (protein, UniProt P00726 1-153)
chain: B1 chain with Q151K
With B4, the binding result in test [9] was “binds”.

B5: Rz E150G (protein, UniProt P00726 1-153)
chain: B1 chain with E150G
Regarding B5, the binding result in test [9] was “no binding”.
